Measured values reported in article PMC12507411.
No constants are given. Whether binding was seen depends on the method and setting. In cells and extracts the contact can be indirect. Some entries that bind do so weakly or less than the wild type.

Chains of the proteins cited; added tags and fusions are not shown.
UniProt Q8BJF9: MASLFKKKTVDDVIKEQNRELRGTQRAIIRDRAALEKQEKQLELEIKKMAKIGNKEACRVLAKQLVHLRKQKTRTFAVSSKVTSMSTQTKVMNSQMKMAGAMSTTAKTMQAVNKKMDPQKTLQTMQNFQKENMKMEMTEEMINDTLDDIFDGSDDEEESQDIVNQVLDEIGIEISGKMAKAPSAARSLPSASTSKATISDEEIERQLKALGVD

Assays:
[1] = biological target: T1, charged multivesicular body protein 4B (CHMP4B) (mouse (endogenous in N2a cells and in mouse hippocampus)) (UniProt Q9D8B3); assay: co-IP; hippocampal homogenate (RIPA lysis buffer) of WT+Vec, MAPT+Vec and MAPT+AAV-CHMP4B mice; anti-CHMP4B on protein A+G agarose, incubated with the homogenate at 4°C overnight; Western blot
T1 sequence: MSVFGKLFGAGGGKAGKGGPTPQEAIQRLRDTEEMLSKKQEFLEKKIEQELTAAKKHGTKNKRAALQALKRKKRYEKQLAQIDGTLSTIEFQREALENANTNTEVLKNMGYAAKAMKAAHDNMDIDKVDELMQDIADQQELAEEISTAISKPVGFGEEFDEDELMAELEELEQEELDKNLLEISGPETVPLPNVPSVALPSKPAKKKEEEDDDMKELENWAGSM

[2] = biological target: T1, charged multivesicular body protein 4B (CHMP4B) (mouse (endogenous in N2a cells and in mouse hippocampus)); assay: co-IP; N2a cell lysate; cells overexpressing vector or MAPT (Figure 2G,H) or treated with siChmp4b (Figure S2F,G); blots for CHMP4B, CHMP2B and ALIX; the methods tell the procedure (anti-CHMP4B on protein A+G agarose) only for hippocampal tissue

## charged multivesicular body protein 2B (CHMP2B) (from UniProt Q8BJF9 1-213)
[1]
  binding: binds
[2]
  binding: binds
